Laboratory results: PubChem BioAssay AID1224830 (NIAID, 2016)
Here is an unselected part of about 18,000 reagents. Over the whole deposit, about 2,900 (16%) are marked active. 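Calls are made per well; low scores hint the gene aids the LPS response, high scores that it dampens it.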 Unmarked entries are inactive. Repeated entries: four replicate wells of each siRNA pool.

Aim: 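Regulators of TLR4 signalling towards TNF-alpha in macrophage-like cells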 (primary screen)
System: human THP-1 monocytic leukaemia cells, TNF dual-luciferase reporter clone, PMA-differentiated to macrophage-like cells
Reagents: siRNA pool against human genes, 50 nM
Timing: LPS for 4 h, given about 3 days after siRNA transfection
Treatment: bacterial LPS (TLR4 ligand), 10 ng/ml
Detection: 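TNF firefly reporter luminescence divided by renilla, normalised to the plate median, then turned into a robust z-score for each replicate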
Scale: TNF reporter robust z-score: higher = stronger TNF reporter response to LPS
Rule for the call: 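Each well counts as active if its z-score is over 2.8 or under -1.5; controls are left without a call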

With PCTP (GeneID 58488), what does the deposit list?
TNF reporter robust z-score: 1.8

What did the screen give for PCTP (GeneID 58488)?
TNF reporter robust z-score: 0.31

What is on record for PCTP (GeneID 58488)?
TNF reporter robust z-score: -1.15

For PCTP (GeneID 58488), what was measured?
TNF reporter robust z-score: -0.65

What did the screen give for CMIP (GeneID 80790)?
TNF reporter robust z-score: -1.01

What is on record for CMIP (GeneID 80790)?
TNF reporter robust z-score: -0.44

What is on record for CMIP (GeneID 80790)?
TNF reporter robust z-score: -0.69

With CMIP (GeneID 80790), what does the deposit list?
TNF reporter robust z-score: -0.64

How did the screen score TNFAIP1 (GeneID 7126)?
TNF reporter robust z-score: -0.12

Which result is listed for TNFAIP1 (GeneID 7126)?
TNF reporter robust z-score: 0.45

With TNFAIP1 (GeneID 7126), how do the results read?
TNF reporter robust z-score: -0.09

What is on record for TNFAIP1 (GeneID 7126)?
TNF reporter robust z-score: -0.18

For TCIM (GeneID 56892), what does the deposit list?
TNF reporter robust z-score: -0.88

For TCIM (GeneID 56892), what does the deposit list?
TNF reporter robust z-score: -1.08

What is on record for TCIM (GeneID 56892)?
TNF reporter robust z-score: -0.82

With TCIM (GeneID 56892), what does the deposit list?
TNF reporter robust z-score: -0.62

Reformatted: 6 of the entries above
{"Target gene": "PCTP (GeneID 58488)", "TNF reporter robust z-score": 1.8}
{"Target gene": "PCTP (GeneID 58488)", "TNF reporter robust z-score": 0.31}
{"Target gene": "PCTP (GeneID 58488)", "TNF reporter robust z-score": -1.15}
{"Target gene": "PCTP (GeneID 58488)", "TNF reporter robust z-score": -0.65}
{"Target gene": "CMIP (GeneID 80790)", "TNF reporter robust z-score": -1.01}
{"Target gene": "CMIP (GeneID 80790)", "TNF reporter robust z-score": -0.44}

Next records:
Which result is listed for CA11 (GeneID 770)?
TNF reporter robust z-score: 2.19

How did the screen score CA11 (GeneID 770)?
TNF reporter robust z-score: 0.79

For CA11 (GeneID 770), what was measured?
TNF reporter robust z-score: -0.38

For CA11 (GeneID 770), what was measured?
TNF reporter robust z-score: 0.52

With VN1R1 (GeneID 57191), what was measured?
TNF reporter robust z-score: -1.28

With VN1R1 (GeneID 57191), how do the results read?
TNF reporter robust z-score: -0.61

With VN1R1 (GeneID 57191), what does the deposit list?
TNF reporter robust z-score: -0.91

For VN1R1 (GeneID 57191), what does the deposit list?
TNF reporter robust z-score: -0.93

For TRMT10C (GeneID 54931), what does the deposit list?
TNF reporter robust z-score: -0.96

For TRMT10C (GeneID 54931), what was measured?
TNF reporter robust z-score: -0.71

For TRMT10C (GeneID 54931), what was measured?
TNF reporter robust z-score: -0.65

With TRMT10C (GeneID 54931), what does the deposit list?
TNF reporter robust z-score: -0.18

Which result is listed for FAM78B (GeneID 149297)?
TNF reporter robust z-score: -1.23

For FAM78B (GeneID 149297), how do the results read?
TNF reporter robust z-score: -1.3

For FAM78B (GeneID 149297), what was measured?
TNF reporter robust z-score: -0.96

With FAM78B (GeneID 149297), what does the deposit list?
TNF reporter robust z-score: -1.04

For TXNL4B (GeneID 54957), how do the results read?
TNF reporter robust z-score: -1.5

With TXNL4B (GeneID 54957), how do the results read?
TNF reporter robust z-score: -0.45

What did the screen give for TXNL4B (GeneID 54957)?
TNF reporter robust z-score: 0.99

With TXNL4B (GeneID 54957), how do the results read?
TNF reporter robust z-score: 1.1

With FCRL5 (GeneID 83416), how do the results read?
TNF reporter robust z-score: 3.56 (active)

For FCRL5 (GeneID 83416), how do the results read?
TNF reporter robust z-score: -0.48

What is on record for FCRL5 (GeneID 83416)?
TNF reporter robust z-score: -1.17

How did the screen score FCRL5 (GeneID 83416)?
TNF reporter robust z-score: 0.96

How did the screen score CRYGB (GeneID 1419)?
TNF reporter robust z-score: 1.82

What is on record for CRYGB (GeneID 1419)?
TNF reporter robust z-score: 0.54

For CRYGB (GeneID 1419), how do the results read?
TNF reporter robust z-score: 1.59

What is on record for CRYGB (GeneID 1419)?
TNF reporter robust z-score: 1.37

With SLC6A1 (GeneID 6529), what was measured?
TNF reporter robust z-score: -1.12

Which result is listed for SLC6A1 (GeneID 6529)?
TNF reporter robust z-score: -0.95

With SLC6A1 (GeneID 6529), how do the results read?
TNF reporter robust z-score: -1.05

How did the screen score SLC6A1 (GeneID 6529)?
TNF reporter robust z-score: -0.26
